Laboratory results as given in PMC4703367.
These are yes or no findings as the source states them, for the method shown. Binding seen in cells or lysates may run through a third protein. Some results given as binding are weak or reduced against the parent protein; the word gives no strength.

Sequences of proteins named here, by UniProt entry; tags and fusion partners are left off. A change or cut given only in a name is not applied to a line headed by its entry. Residues count along the entry.
UniProt P25911: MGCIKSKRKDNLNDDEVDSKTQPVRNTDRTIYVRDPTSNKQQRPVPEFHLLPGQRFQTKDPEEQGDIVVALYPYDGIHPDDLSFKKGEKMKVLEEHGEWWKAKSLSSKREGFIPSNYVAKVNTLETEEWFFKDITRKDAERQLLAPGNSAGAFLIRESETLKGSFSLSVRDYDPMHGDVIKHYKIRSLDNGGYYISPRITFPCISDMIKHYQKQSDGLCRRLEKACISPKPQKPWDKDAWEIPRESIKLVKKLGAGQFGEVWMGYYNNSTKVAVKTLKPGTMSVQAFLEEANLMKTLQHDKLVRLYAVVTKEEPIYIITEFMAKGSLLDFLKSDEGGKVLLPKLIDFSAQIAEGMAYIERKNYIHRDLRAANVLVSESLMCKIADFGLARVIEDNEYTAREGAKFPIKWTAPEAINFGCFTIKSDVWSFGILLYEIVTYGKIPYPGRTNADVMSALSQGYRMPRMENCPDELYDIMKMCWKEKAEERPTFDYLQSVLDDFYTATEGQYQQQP
UniProt P07948, residues 1-230: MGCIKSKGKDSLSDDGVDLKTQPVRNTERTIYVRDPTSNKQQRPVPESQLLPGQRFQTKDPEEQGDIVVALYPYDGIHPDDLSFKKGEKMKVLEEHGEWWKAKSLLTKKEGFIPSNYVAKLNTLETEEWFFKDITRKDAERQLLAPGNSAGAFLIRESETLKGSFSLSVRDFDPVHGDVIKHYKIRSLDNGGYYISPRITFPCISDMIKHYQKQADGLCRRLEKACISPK
UniProt Q9CQY1: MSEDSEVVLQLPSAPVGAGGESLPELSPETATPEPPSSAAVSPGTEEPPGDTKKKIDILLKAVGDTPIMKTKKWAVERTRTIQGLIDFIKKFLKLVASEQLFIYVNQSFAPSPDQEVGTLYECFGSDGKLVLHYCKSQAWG
UniProt P18760: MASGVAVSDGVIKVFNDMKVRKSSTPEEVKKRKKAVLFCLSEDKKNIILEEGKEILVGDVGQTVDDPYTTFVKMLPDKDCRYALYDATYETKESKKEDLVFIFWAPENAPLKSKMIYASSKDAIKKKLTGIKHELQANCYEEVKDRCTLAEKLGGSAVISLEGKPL

What was measured:
[1] = target: Lyn (mouse (endogenous in MH-S)) (UniProt P25911); assay: co-IP; lysates of MH-S cells infected with PAO1 (MOI = 10, 1 h); Protein A/G-agarose beads with the related antibody (Lyn antibody named for Fig 6K and S6J), immunoblotting; Fig 6K with Ctrl or Lyn siRNA
GST-Lyn 1–230 [2] = target: GST-Lyn 1–230 (UniProt P07948); assay: pull-down; GST-Lyn fragments incubated with lysates of primary mouse AM infected with Pa; immunoblotting; only the target purified
GST-Lyn 1–230 [3] = target: GST-Lyn 1–230 (UniProt P07948); assay: pull-down; GST-Lyn fragments on immobilized glutathione agarose beads incubated with whole cell lysates of MH-S cells infected with PAO1 (MOI = 10, 1 h); immunoblotting; only the target purified

Row | binding [1] | binding (GST-Lyn 1–230 [2]) | binding (GST-Lyn 1–230 [3]) | Substance
1 | binds | binds | binds | Atg12-Atg5 (from UniProt Q9CQY1 1-141; Q99J83 1-275) (complex)
2 | binds | – | – | Cofilin-1 (from UniProt P18760 1-166)
